According to US9526915B2, “Methods for regulating cell mitosis by inhibiting serine/threonine phosphatase” (priority 2008, dated 2016):
“Also recorded” adds a separate entry of the source. For at least one compound, name, drawing or mass did not settle the structure.

What was measured:
U87MG cells [1] = assay: Cell cycle distribution of U87MG cells by FACS; assay type: cell-based, human; conditions: 48 hours
Method: (§1) Cells in unsynchronized logarithmic growth were exposed to vehicle or drug and adherent cells and cells in the media were collected. Harvested cells were fixed with 70% cold ethanol for 20 min at −20 degrees, washed with PBS, and stained with 10 ug/ml of PI and 1 ug/ml RNAse in TBS for 30 minutes and analyzed by FACS. A, Flow cytometry profiles of U87 cells after exposures to DMSO only, compound 102 only, 5 uM; TMZ only, 25 uM; compound 102 with TMZ combination, doxorubicin only, 2.0 uM and compound 102 with doxorubicin combination. B, Flow cytometry profiles of U373 cells. Exposures as in A, and C, Schema of proposed mechanisms of compound 102 enhancement of cancer chemotherapy.
(§2) We analyzed cell cycle patterns of U87MG and U373 cells 48 hours after exposure to TMZ or DOX alone and in combination with compound 102.

U373 cells = assay: Cell cycle distribution of U373 cells by FACS; assay type: cell-based, human; conditions: U373, 48 hours
Method: as §1, §2

U87MG xenografts = assay: U87MG s.c. xenografts in SCID mice, compound 102 and TMZ; assay type: in vivo; conditions: compound 102 1.5 mg/kg i.p. days 1-3, 5-7, 9-11; TMZ 80 mg/kg days 4, 8, 12
Method: (§3) 5×10^6 U87MG cells were inoculated s.c. into each flank of 20 SCID mice. When the xenografts were 0.5+/−0.1 cm (day 0), 5 animals each received i.p. vehicle alone days 1-12 (50% DMSO/H20); compound 102 alone at 1.5 mg/kg days 1-3, 5-7, & 9-11; TMZ alone at 80 mg/kg days 4, 8, 12; or both drugs at the same doses and schedules. If xenografts reached 1800 mm^3, animals were sacrificed. […] B, Survival curve combining the data from the study shown in FIG. 12A, with a second identical study involving a total of 10 animals with two xenografts each. Disease-free survival was defined as no recurrence of either xenografts. […] As in 12A, except that xenografts of SH-SY5Y cells were implanted in one flank only and animals were treated with one additional cycle of drugs, i.e., compound 102 on days 13-15, TMZ, on day 16, and compound 102 plus TMZ on the same schedules. […] E, Western blots of U87 cells in culture 24 hours after exposure to compound 102 at 2.5 uM, TMZ at 25 uM or DOX at 2 uM, and compound 102 plus TMZ or DOX. F, Western blots of U373 cells 24 hours after exposure to compound 102 at 2.5 uM, doxorubicin at 2 uM, and both drugs. G, Western blots of U373 cells 24 hours after exposure to TMZ at 25 uM, okadaic acid at 2 nM, and both drugs. […]

U87MG cells [2] = assay: Cellular and molecular changes in U87MG cells (Western blots, IFS); assay type: cell-based, human; conditions: 24 hours, compound 102 2.5 uM, TMZ 25 uM, DOX 2 uM
Method: D, Western blots of U87 lysates: TCTP, pPlk (Tre-210), total Plk, and β-actin. E, IFS of TCTP in U87 cells, F, Western blots p53 (ser-15), pMDM2 (ser-166), and β-actin and G, IFS of p53 (ser-15).
5×10^6 U87MG cells were inoculated s.c. into each flank of 20 SCID mice. When the xenografts were 0.5+/−0.1 cm (day 0), 5 animals each received i.p. vehicle alone days 1-12 (50% DMSO/H20); compound 102 alone at 1.5 mg/kg days 1-3, 5-7, & 9-11; TMZ alone at 80 mg/kg days 4, 8, 12; or both drugs at the same doses and schedules. If xenografts reached 1800 mm^3, animals were sacrificed. […] B, Survival curve combining the data from the study shown in FIG. 12A, with a second identical study involving a total of 10 animals with two xenografts each. Disease-free survival was defined as no recurrence of either xenografts. […] As in 12A, except that xenografts of SH-SY5Y cells were implanted in one flank only and animals were treated with one additional cycle of drugs, i.e., compound 102 on days 13-15, TMZ, on day 16, and compound 102 plus TMZ on the same schedules. […] E, Western blots of U87 cells in culture 24 hours after exposure to compound 102 at 2.5 uM, TMZ at 25 uM or DOX at 2 uM, and compound 102 plus TMZ or DOX. F, Western blots of U373 cells 24 hours after exposure to compound 102 at 2.5 uM, doxorubicin at 2 uM, and both drugs. G, Western blots of U373 cells 24 hours after exposure to TMZ at 25 uM, okadaic acid at 2 nM, and both drugs.
TCTP is an abundant, highly conserved, multifunctional protein that binds to and stabilizes microtubules before and after mitosis and also exerts potent anti-apoptotic activity (Bommer and Thiele, 2004; Yarm, 2002; Susini et al, 2008) (FIG. 11E). […]
The effects of compound 102, TMZ, doxorubicin (DOX), a widely used anti-cancer drug that disrupts DNA replication, compound 102 plus TMZ, and compound 102 plus DOX on the amount of pAkt, p53 and MDM2 in U87MG, a cell line with wild-type p53, and in U373, a cell line with mutant p53 (Short et al, 2007) were assessed by Western blots.

SH-SY5Y xenografts = assay: SH-SY5Y neuroblastoma s.c. xenografts in SCID mice, compound 102 and TMZ; assay type: in vivo; conditions: as U87MG plus one additional cycle; followed 7 weeks
Method: as §3

[3] = compound 102 5 uM, TMZ 25 uM, doxorubicin 2.0 uM

For `Cn1nnc2c(C(N)=O)ncn2c1=O` [TMZ, temozolomide, reference compound], the G1 phase cells (U87MG cells [1]; [3]) was “decreased”, the G2/M phase cells (U87MG cells [1]; same concentrations) was “little effect” and the S phase cells (U87MG cells [1]; same concentrations) was “markedly increased”. For the same compound, the G1 phase cells (U373 cells; [3]) was “reduced”, the G2/M phase cells (U373 cells; same concentrations) was “reduced” and the S phase cells (U373 cells; same concentrations) was “greatly increased”. For the same compound, the U87MG xenograft growth/regression (U87MG xenografts) was “complete regression for 5 weeks; also recorded: complete regression of all xenografts by week 5”, the MDM2 (U87MG cells [2]) was “little effect” and the p53 (U87MG cells [2]) was “increased”. The pAkt-1 (U87MG cells [2]) was “decreased” and the “NB (SH-SY5Y) xenograft growth” value (SH-SY5Y xenografts) was “less inhibitory than compound 102; also recorded: delayed growth”.
